These results are taken from paper PMC4554924.

No constants are given. Whether binding was seen depends on the method and setting. Some results given as binding are weak or reduced against the parent protein; the word gives no strength.

Test [1] deals with putative Atg17 (DDB_G0295673) (Dictyostelium discoideum) (UniProt B0G140). The test is described as follows: two-hybrid; pairwise analysis: atg genes in pACT2 and pLexA(1-202)+PL, S. cerevisiae TAT7.
Test [2] concerns the target T1, Atg8 (DDB_G0286191) (Dictyostelium discoideum) (UniProt Q86CR8).
T1 sequence: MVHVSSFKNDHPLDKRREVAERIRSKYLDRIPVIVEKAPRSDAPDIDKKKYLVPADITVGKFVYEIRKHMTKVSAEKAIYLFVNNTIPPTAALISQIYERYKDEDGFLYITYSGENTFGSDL
The test is described as follows: two-hybrid; library screen: LexA fusion bait in pLexA(U) against a D. discoideum cDNA library in pAD-GAL4-2.1, S. cerevisiae TAT7; His+ transformants with 5 mM 3-aminotriazole, then beta-galactosidase filter assay; interactions recapitulated in a fresh yeast strain with bait and prey plasmids.

In test [3] the target is T2, Atg12 (Dictyostelium discoideum) (UniProt Q86CR6).
T2 sequence: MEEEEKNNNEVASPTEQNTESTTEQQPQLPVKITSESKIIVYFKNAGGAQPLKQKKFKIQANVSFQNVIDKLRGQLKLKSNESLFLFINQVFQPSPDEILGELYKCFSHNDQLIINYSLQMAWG
The experiment in a line: two-hybrid; pairwise analysis: atg genes in pACT2 and pLexA(1-202)+PL, S. cerevisiae TAT7.

The target in test [4] is T1, Atg8 (DDB_G0286191) (Dictyostelium discoideum). Described as above.

B1: putative Atg17 (DDB_G0295673) (protein, UniProt B0G140 1-488)
chain: MDFSSKSLELCKSHSNQTDQLLKISKQTYEKYDNSLSKLHLIIRELNKQLIILKETSTQFNDRYNTFINDFTSLSNQKQSLFTSIENKLEILKKKYLDKGLVFKNNNNNNNNNNNNNNNNNNNSNKSTEDDNNENNNNNDVNKNNNNNNNNNLNTLYDFIDIESLELIKNQFLSELSGLNEICDKSKQIYKSTNESNLEMENRFLEIQKQYNKQIEESNSLSDLLTQQNNLYKTIQNQLINVASQCDFITFYKPSPSPLSPSPSPSSSSSSSSPSPSSPQQQHDFNINNKKEQIQLLLTSSLENIQLMSKNVKDIENQFKESCSIYTLVYLLNEKLSFGNDFSENWETFERFNCIFEQRLAGANYFIGELYSLGKWYDLFDESYDNLLEEVKRRQKEYLRQKTIAEQFNEELKHNYNQEIQNRLKFYDSYGKYLPVSLFSTISDQPISFQVKQIIEESVIDYSFNPLNLKRSSPINQQQQQQQPPPNS
With B1, in test [1], the binding entry is “binds”.

B2: CnrK, cell number regulator DDB_G0292120, library clone 772-1214 (domain or fragment, UniProt Q54DM8 772-1214)
chain: EISNLLNKSIPSDQVEYDPKKIRLFNLYGGQIKSSSDIINNEPIFITTSIHEQFIEPQIPTLTLEEIEEAQKQIELENKNNVKILVDQKEKVFTQLKPKNKRMNDTLKLRENLENQLKLQEKLKIDQENLGNPNVQLFTDEIRDQYFYYRTTLLDSDNDDSDEYYYYDDSDEYEQYNAKDLIDHPTSNDTTTVTTTTATTTTTATEESIIIDGEDEFVNIDSNSSSSEFEDGDEDLLEIKRLQEIDDQVLEKENQLIVQEQKQIDLVFKVLEMYQDEKFGLDFDKVFSVCSDSKNLSQAIKKMTNYLDENYYSNQYGITQTYLLIKERLSFTFPNLSLTVIDRAIKESKYNHDKAKSWIYNKFQKQQKKKFNQLSKNNQQQQQQQQQPQSQQQPQLQTRKINTSEQFEIESEDDDSYDIDEAENYLTEKIYNDKVSKFHHKMD
With B2, in test [2], the binding entry is recorded as “binds”.

B3: CrtA, calreticulin DDB_G0283539, library clone 176-424 (domain or fragment, UniProt Q23858 176-424)
chain: ISPDNTYKVLVDNKEIQAGNLADDWELLPSKQIKDPKQSKPVDWVDVKEIDDPEDVKPAGHDDIPASIVDPEAVKPEDWNEEDDGEWEAPTIANPEYKGEWKAKKIPNPEYKGEWVHPLIDNPEYAEDNELYLFNDLGAIGFELWQVKSGSIFNNMIVTDSVEEAKDFSEKTFVANQEAEKKMFDDLEAAKAEERKKADEKLAAEKAAEKEAEEADEEEEEVAEEDLVKTDDKKEEVKKSTKKVDHDEL
Turning to B3, the binding entry in test [2] is on record as “binds”.

B4: Atg7 DDB_G0271096, library clone 301-707 (domain or fragment, UniProt Q86CR9 301-707)
chain: GEWSGKSVGWEKDSNGKIAPRFVSLASTMDPLKLAEQSVDLNLKLMRWRVMPSLELEKIKTTSCLLLGSGTLGCNVARSLMSWGVRNITFVDSSKVSYSNPVRQSLFTFADCSPKAKEKSIAAADALKKIFPAINANAHVFSIPMPGHSVPQSEYQSIRNTIELLENLIKQHDVIYLLTDSRESRWLPTMLSRAHGKLCINAALGFDSYLVIRHGIKDQCQNELNPSISSKLGYQGSDLGCYFCNDVIAPTDTLKDRTLDQMCTVTRPGLSMMASSIAVELLISTIHHPYGGRAKGETETDVYVQGSTPLGIIPHQLRGFISHYQTLPLFSNPYKHCTACSDYIIDEYNSKGFDFIINVMNDSSCLTKICGIDDLKNTEVNIDWDIDISDDDDDNNNNNNKEKNDDF
Turning to B4, the binding entry in test [2] is listed as “binds”.

B5: Dnpep, aspartyl aminopeptidase DDB_G0286149, library clone 1-484 (protein, UniProt Q54M70 1-484)
chain: MEQYLPQAKEFISFIDKSPSPYHAVQYFSEILKSKGFIHLSEKQMWDIQPNKKYFFTRNQSCISAFAVGGKYKPGNGFNIAAAHTDSPNFKVRPVSKVESVGYQQVGVETYGGGLWYTWFDRDLTVAGRVIVKSGDGSYESKLVHIKKPILRIPSLAIHLDRSVNTDGFKYNTQNHLVPMIASKLSEPVESKSTTTTTTTESPKTSDPQDVNSSTTKHHAVLLELLSKELGCSVGDIQNFDLSVCDTQPAAIGGALDEFIFSPRCDNLGMSYCAMIGLLNVKESTLAQEENVLNVILFDNEEVGSSSPQGACAPLINDTISRVNSSMFASTCKPHELNNFIDLTLRNSFLISADMAHAIHPNYTANHEPLHRPALNKGPVIKYNANLRYASNGPTSFVILDICKKNGIPIQEFLVKNDSPCGSTIGPIISGTYGIRTVDIGNPQLSMHSIRETCGVADITHGINLIQKYFEQFTKLDIIKSDLE
Regarding B5, the binding result in test [2] is listed as “binds”.

B6: Atg7 (pairwise two-hybrid construct) (protein, UniProt Q86CR9 1-707)
chain: MTNTLQFKEFSSFVNISFWHELSNKKLDELKLSEESIPLNGHYTFSPSQQLDPFLCLEFNAFLRNNVTNSTENQYVLPPRSYLSHGTLYNYNTVDDFKQSPKIKLFNDASKRIWNDINNGNIDKDTSLLNRFILLTYADIKNHQFYYMFGIPALLPSQPIQQFTEKPESINIESLKSFSNQILPQYFCLKQQQQESSTTTTTSFELIGSIEEKGNQYLNECLENDLIPLVGFCDPCSLPLNPGWPLRNFLIYLSIKYPMLKKIKVLCYRGNGSTSNSILLSLELPSMGEQLIKKQQEEDAGEWSGKSVGWEKDSNGKIAPRFVSLASTMDPLKLAEQSVDLNLKLMRWRVMPSLELEKIKTTSCLLLGSGTLGCNVARSLMSWGVRNITFVDSSKVSYSNPVRQSLFTFADCSPKAKEKSIAAADALKKIFPAINANAHVFSIPMPGHSVPQSEYQSIRNTIELLENLIKQHDVIYLLTDSRESRWLPTMLSRAHGKLCINAALGFDSYLVIRHGIKDQCQNELNPSISSKLGYQGSDLGCYFCNDVIAPTDTLKDRTLDQMCTVTRPGLSMMASSIAVELLISTIHHPYGGRAKGETETDVYVQGSTPLGIIPHQLRGFISHYQTLPLFSNPYKHCTACSDYIIDEYNSKGFDFIINVMNDSSCLTKICGIDDLKNTEVNIDWDIDISDDDDDNNNNNNKEKNDDF
B6: the binding entry in test [3] and in test [4] was “binds” each time.
